Test results: US8383609B2, “Phosphorus containing heterocyclic compounds, sugar analogues, and compositions having anti-cancer activity containing the same” (Centre National de la Recherche Scientifique, priority 2007, dated 2013)
Some entries share one result that the patent states for a list of compounds.

System: astrocyte primary cultures from the cortex of a newborn rat
Experiment: Cytotoxicity on the non modified astrocytes, so called healthy cells (quantitative assay)
Details: second day after addition, FIG. 1

| SMILES | cell death of healthy cells |
| --- | --- |
| COc1ccc([P@]2(=O)O[C@H](COCc3ccccc3)[C@@H](OCc3ccccc3)[C@H](OCc3ccccc3)C2O)cc1 (some centres unmarked) [Compound 3.51a, 4,5-bis-benzyloxy-6-benzyloxymethyl-2-(p-methoxy)phenyl-2-oxo-2λ^5-[1,2]oxaphosphinan-3-ol] | ≤ 20% |
| Cc1ccc(N[C@H]2[C@H]3OC(C)(C)O[C@H]3[C@@H]([C@H]3COC(C)(C)O3)O[P@@]2(=O)c2ccccc2)cc1 [Compound 3.30a, 4-(2,2-Dimethyl-[1,3]dioxolan-4-yl)-2,2-dimethyl-2-oxo-2-phenyl-tetrahydro-6λ*5*-[1,3]dioxolo[4,5-d][1,2]oxaphosphinan-3-aminotoluyl] | ≤ 20% |
